Data reported in PubChem BioAssay AID1345085 (National Center for Advancing Translational Sciences (NCATS), 2018).
The shares of active, inactive and inconclusive entries below differ from those in the screen. Potencies beside an inconclusive call are fits to weak or partial responses and may not hold up. Active and inactive are the calls of the source. Calls follow the shape of the dose curve; as a rule, active = well fitted cell-killing curve with a large enough effect; inconclusive = small, poorly fitted or top-dose-only effect, or effect the other way; inactive = no such curve, though single readings can be large or run the other way.

These compounds were tested on Jar (assay: Confirmatory qHTS for gynecologic anti-cancer compounds from libraries of approved drugs and bioactive compounds). Settings: gynecologic cancer cell panel viability, ATPlite luminescence, 48 h; series mostly up to 57.6 µM; activity change, negative = viability loss: at the top concentration.
Method in brief: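 Cells (1,000/well) plated 16 h, then exposed 48 h at 37 °C to 11 concentrations (1:3) from 57.5 uM to 0.977 nM. Viability by ATPlite luminescence after 15 min; IC50 derived, with HEK 293T used for selectivity index.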
% is scaled to controls: 0 for no effect and ±100 for the full control effect; potency is read from the fitted curve at half-maximal effect.
Also: nearly all actives have a fitted effect of over 55% in size.

Row | SMILES | Potency | activity change, negative = viability loss
1 | Cc1ccc(C(=O)Nc2cccc(C(F)(F)F)c2)cc1-c1ccc2nc(NCCN3CCOCC3)ncc2c1 | inconclusive: 19.3 µM [cytotoxic, partial curve, poor fit] | 
2 | O=C(NOCC1CC1)c1ccc(F)c(F)c1Nc1ccc(I)cc1Cl | inconclusive: 30.6 µM [cytotoxic, single point] | 
3 | COc1cc(N2CCC(N(C)C)CC2)ccc1Nc1ncc(Cl)c(Nc2ccccc2P(C)(C)=O)n1 | inconclusive: 34.3 µM [cytotoxic, single point] | 
4 | COc1cc(C(=O)N2CCC(N3CCN(C)CC3)CC2)ccc1Nc1ncc2c(n1)N(C)c1ccccc1C(=O)N2C | inconclusive: 0.968 µM [rising, partial curve, poor fit] | 
5 | Cc1cc(CN2CCN(c3c(Br)cnc4nc(-c5ccc(N6CCN(C)CC6)cc5)[nH]c34)CC2)no1 | inconclusive: 43.2 µM [cytotoxic, single point] | 
6 | NS(=O)(=O)c1ccc(Nc2nc(OCC3CCCCC3)c3[nH]cnc3n2)cc1 | inconclusive: 1.37 µM [rising, full curve] | 
7 | COc1ccc2c(c1)c(CC(=O)O)c(C)n2C(=O)c1ccc(Cl)cc1 | inconclusive: 24.3 µM [cytotoxic, single point] | 
8 | Cc1cc(Nc2cc(N3CCN(C)CC3)nc(Sc3ccc(NC(=O)C4CC4)cc3)n2)n[nH]1 |  | inactive: -12.5%
9 | NC1(c2ccc(-c3nc4ccn5c(=O)[nH]nc5c4cc3-c3ccccc3)cc2)CCC1 | inconclusive: 38.5 µM [cytotoxic, partial curve, poor fit] | 
10 | CS(=O)(=O)c1ccc(-c2cnc(N)c(C(=O)Nc3ccccc3)n2)cc1 |  | inactive: -4.41%
11 | COc1c(C)c2c(c(O)c1C/C=C(\C)CCC(=O)OCCN1CCOCC1)C(=O)OC2 |  | inactive: -6.9%
12 | Cc1cc(SCc2sc(-c3ccc(C(F)(F)F)cc3)nc2C)ccc1OCC(=O)O |  | inactive: -6.35%
13 | COc1cc(F)c(F)c(Nc2ccc(I)cc2F)c1NS(=O)(=O)C1(CC(O)CO)CC1 (stereo not drawn) | inconclusive: 0.611 µM [rising, full curve, poor fit] | 
14 | CCCCN(CCCC)CC(O)c1cc(Cl)cc2c1-c1ccc(Cl)cc1/C2=C/c1ccc(Cl)cc1 (stereo not drawn) | inconclusive: 1.09 µM [rising, partial curve, poor fit] | 
15 | O=c1[nH]c(=O)n([C@H]2C[C@H](O)[C@@H](CO)O2)cc1F | inconclusive: 0.0863 µM [rising, partial curve, poor fit] | 
16 | CC[C@H](CC#N)OC(=O)N[C@@H](C)c1cccc(NC(=O)Nc2ccc(-c3cnco3)c(OC)c2)c1 | inconclusive: 38.5 µM [cytotoxic, single point] | 
17 | Cn1cnc2c(F)c(Nc3ccc(Br)cc3Cl)c(C(=O)NOCCO)cc21 |  | inactive: 16.4%

Quoted at random: 3 compounds from above
Row | SMILES | Potency | activity change, negative = viability loss
10 | CS(=O)(=O)c1ccc(-c2cnc(N)c(C(=O)Nc3ccccc3)n2)cc1 |  | inactive: -4.41%
16 | CC[C@H](CC#N)OC(=O)N[C@@H](C)c1cccc(NC(=O)Nc2ccc(-c3cnco3)c(OC)c2)c1 | inconclusive: 38.5 µM [cytotoxic, single point] | 
11 | COc1c(C)c2c(c(O)c1C/C=C(\C)CCC(=O)OCCN1CCOCC1)C(=O)OC2 |  | inactive: -6.9%

Further entries:

Row | SMILES | Potency | activity change, negative = viability loss
18 | CC[C@@]1(O)C(=O)OCc2c1cc1n(c2=O)Cc2c-1nc1ccccc1c2/C=N/OC(C)(C)C | active: 0.968 µM | 
19 | CC(=O)O[C@H]1C(=O)[C@@]2(C)[C@H]([C@H](OC(=O)c3ccccc3)[C@]3(O)C[C@H](OC(=O)[C@H](O)[C@@H](NC(=O)c4ccccc4)c4ccccc4)C(C)=C1C3(C)C)[C@]1(OC(C)=O)CO[C@@H]1C[C@@H]2O | active: 0.0366 µM | 
20 | CN1CCN(c2cccc(Nc3nc4c(-c5ccc(S(C)(=O)=O)cc5)cccn4n3)c2)CC1 | inconclusive: 15.3 µM [cytotoxic, full curve, poor fit] | 
21 | C=CC(=O)Nc1cccc(Oc2nc(Nc3ccc(N4CCN(C)CC4)cc3)ncc2Cl)c1 | inconclusive: 15.3 µM [cytotoxic, partial curve, poor fit] | 
22 | CN1CCN(CCOc2cc(OC3CCOCC3)c3c(Nc4c(Cl)ccc5c4OCO5)ncnc3c2)CC1 | inconclusive: 27.3 µM [cytotoxic, single point] | 
23 | Fc1cc(-c2cccc3ncc(-c4cnn(C5CCNCC5)c4)nc23)cc(F)c1CN1CCOCC1 | active: 34.3 µM | 
24 | CN1CCN(c2ccc(OC(F)(F)F)c(Nc3ncc4c(n3)-c3c(c(C(N)=O)nn3CCO)CC4)c2)CC1 | active: 0.153 µM | 
25 | CN(C)C/C=C/C(=O)Nc1cc2c(Nc3ccc(F)c(Cl)c3)ncnc2cc1OC1CCOC1 (stereo not drawn) | inconclusive: 34.3 µM [cytotoxic, partial curve, poor fit] | 
26 | CCOC(=O)C1=C(C)NC2=C(C(=O)CC(C)(C)C2)C1c1ccc(-c2ccccc2)cc1 (stereo not drawn) | inconclusive: 1.37 µM [rising, full curve, poor fit] | 
27 | CC(C)Nc1cc(-c2c[nH]c(C(=O)N[C@H](CO)c3cccc(Cl)c3)c2)c(Cl)cn1 | inconclusive: 48.5 µM [cytotoxic, single point] | 
28 | COC(C(=O)N1Cc2[nH]nc(NC(=O)c3ccc(N4CCN(C)CC4)cc3)c2C1)c1ccccc1 (stereo not drawn) |  | inactive: -23.9%
29 | NC(=O)c1ccc2nc(-c3ccc(Oc4ccc(Cl)cc4)cc3)[nH]c2c1 | active: 24.3 µM | 
30 | O=c1cc(CN2CCOCC2)occ1OCCCCCSc1ccnc2cc(C(F)(F)F)ccc12 | active: 7.69 µM | 
31 | CCc1c2c(nc3ccc(O)cc13)-c1cc3c(c(=O)n1C2)COC(=O)[C@]3(O)CC | active: 1.72 µM | 
32 | Cn1cc(-c2ccc3ncc(Cc4ccc5ncccc5c4)n3n2)cn1 | inconclusive: 0.0097 µM [rising, full curve] | 
33 | NCCOc1cc(C(=O)Nc2cc(OCCN)c3ccccc3n2)nc(C(=O)Nc2cc(OCCN)c3ccccc3n2)c1 | inconclusive: 0.217 µM [rising, partial curve, poor fit] | 
